Source: PMC11852926
Results are given in words; binding and its absence hold for the method and conditions named. Binding seen in cells or lysates may run through a third protein. A result given as binding can be weak or reduced; the word gives no strength. Where a sequence is shown, tags or fusion partners need not be part of it.

B1: His-COPA-Δ816–1224 (domain or fragment, UniProt P53621 1-815)
chain: MLTKFETKSARVKGLSFHPKRPWILTSLHNGVIQLWDYRMCTLIDKFDEHDGPVRGIDFHKQQPLFVSGGDDYKIKVWNYKLRRCLFTLLGHLDYIRTTFFHHEYPWILSASDDQTIRVWNWQSRTCVCVLTGHNHYVMCAQFHPTEDLVVSASLDQTVRVWDISGLRKKNLSPGAVESDVRGITGVDLFGTTDAVVKHVLEGHDRGVNWAAFHPTMPLIVSGADDRQVKIWRMNESKAWEVDTCRGHYNNVSCAVFHPRQELILSNSEDKSIRVWDMSKRTGVQTFRRDHDRFWVLAAHPNLNLFAAGHDGGMIVFKLERERPAYAVHGNMLHYVKDRFLRQLDFNSSKDVAVMQLRSGSKFPVFNMSYNPAENAVLLCTRASNLENSTYDLYTIPKDADSQNPDAPEGKRSSGLTAVWVARNRFAVLDRMHSLLIKNLKNEITKKVQVPNCDEIFYAGTGNLLLRDADSITLFDVQQKRTLASVKISKVKYVIWSADMSHVALLAKHAIVICNRKLDALCNIHENIRVKSGAWDESGVFIYTTSNHIKYAVTTGDHGIIRTLDLPIYVTRVKGNNVYCLDRECRPRVLTIDPTEFKFKLALINRKYDEVLHMVRNAKLVGQSIIAYLQKKGYPEVALHFVKDEKTRFSLALECGNIEIALEAAKALDDKNCWEKLGEVALLQGNHQIVEMCYQRTKNFDKLSFLYLITGNLEKLRKMMKIAEIRKDMSGHYQNALYLGDVSERVRILKNCGQKSLAYLTAATHGLDEEAESLKETFDPEKETIPDIDPNAKLLQPPAPIMPLDTNWPLLTVSK
B2: HA-tagged β′ subunit of COPI (protein, UniProt P35606 1-906)
chain: MPLRLDIKRKLTARSDRVKSVDLHPTEPWMLASLYNGSVCVWNHETQTLVKTFEVCDLPVRAAKFVARKNWVVTGADDMQIRVFNYNTLERVHMFEAHSDYIRCIAVHPTQPFILTSSDDMLIKLWDWDKKWSCSQVFEGHTHYVMQIVINPKDNNQFASASLDRTIKVWQLGSSSPNFTLEGHEKGVNCIDYYSGGDKPYLISGADDRLVKIWDYQNKTCVQTLEGHAQNVSCASFHPELPIIITGSEDGTVRIWHSSTYRLESTLNYGMERVWCVASLRGSNNVALGYDEGSIIVKLGREEPAMSMDANGKIIWAKHSEVQQANLKAMGDAEIKDGERLPLAVKDMGSCEIYPQTIQHNPNGRFVVVCGDGEYIIYTAMALRNKSFGSAQEFAWAHDSSEYAIRESNSIVKIFKNFKEKKSFKPDFGAESIYGGFLLGVRSVNGLAFYDWDNTELIRRIEIQPKHIFWSDSGELVCIATEESFFILKYLSEKVLAAQETHEGVTEDGIEDAFEVLGEIQEIVKTGLWVGDCFIYTSSVNRLNYYVGGEIVTIAHLDRTMYLLGYIPKDNRLYLGDKELNIISYSLLVSVLEYQTAVMRRDFSMADKVLPTIPKEQRTRVAHFLEKQGFKQQALTVSTDPEHRFELALQLGELKIAYQLAVEAESEQKWKQLAELAISKCQFGLAQECLHHAQDYGGLLLLATASGNANMVNKLAEGAERDGKNNVAFMSYFLQGKVDACLELLIRTGRLPEAAFLARTYLPSQVSRVVKLWRENLSKVNQKAAESLADPTEYENLFPGLKEAFVVEEWVKETHADLWPAKQYPLVTPNEERNVMEEGKDFQPSRSTAQQELDGKPASPTPVIVASHTANKEEKSLLELEVDLDNLELEDIDTTDINLDEDILDD
B3: HA-tagged δ subunit of COPI (protein, UniProt P48444 1-511)
chain: MVLLAAAVCTKAGKAIVSRQFVEMTRTRIEGLLAAFPKLMNTGKQHTFVETESVRYVYQPMEKLYMVLITTKNSNILEDLETLRLFSRVIPEYCRALEENEISEHCFDLIFAFDEIVALGYRENVNLAQIRTFTEMDSHEEKVFRAVRETQEREAKAEMRRKAKELQQARRDAERQGKKAPGFGGFGSSAVSGGSTAAMITETIIETDKPKVAPAPARPSGPSKALKLGAKGKEVDNFVDKLKSEGETIMSSSMGKRTSEATKMHAPPINMESVHMKIEEKITLTCGRDGGLQNMELHGMIMLRISDDKYGRIRLHVENEDKKGVQLQTHPNVDKKLFTAESLIGLKNPEKSFPVNSDVGVLKWRLQTTEESFIPLTINCWPSESGNGCDVNIEYELQEDNLELNDVVITIPLPSGVGAPVIGEIDGEYRHDSRRNTLEWCLPVIDAKNKSGSLEFSIAGQPNDFFPVQVSFVSKKNYCNIQVTKVTQVDGNSPVRFSTETTFLVDKYEIL
B4: His-COPA-Δ1–318 (domain or fragment, UniProt P53621 319-1224)
chain: LERERPAYAVHGNMLHYVKDRFLRQLDFNSSKDVAVMQLRSGSKFPVFNMSYNPAENAVLLCTRASNLENSTYDLYTIPKDADSQNPDAPEGKRSSGLTAVWVARNRFAVLDRMHSLLIKNLKNEITKKVQVPNCDEIFYAGTGNLLLRDADSITLFDVQQKRTLASVKISKVKYVIWSADMSHVALLAKHAIVICNRKLDALCNIHENIRVKSGAWDESGVFIYTTSNHIKYAVTTGDHGIIRTLDLPIYVTRVKGNNVYCLDRECRPRVLTIDPTEFKFKLALINRKYDEVLHMVRNAKLVGQSIIAYLQKKGYPEVALHFVKDEKTRFSLALECGNIEIALEAAKALDDKNCWEKLGEVALLQGNHQIVEMCYQRTKNFDKLSFLYLITGNLEKLRKMMKIAEIRKDMSGHYQNALYLGDVSERVRILKNCGQKSLAYLTAATHGLDEEAESLKETFDPEKETIPDIDPNAKLLQPPAPIMPLDTNWPLLTVSKGFFEGTIASKGKGGALAADIDIDTVGTEGWGEDAELQLDEDGFVEATEGLGDDALGKGQEEGGGWDVEEDLELPPELDISPGAAGGAEDGFFVPPTKGTSPTQIWCNNSQLPVDHILAGSFETAMRLLHDQVGVIQFGPYKQLFLQTYARGRTTYQALPCLPSMYGYPNRNWKDAGLKNGVPAVGLKLNDLIQRLQLCYQLTTVGKFEEAVEKFRSILLSVPLLVVDNKQEIAEAQQLITICREYIVGLSVETERKKLPKETLEQQKRICEMAAYFTHSNLQPVHMILVLRTALNLFFKLKNFKTAATFARRLLELGPKPEVAQQTRKILSACEKNPTDAYQLNYDMHNPFDICAASYRPIYRGKPVEKCPLSGACYSPEFKGQICRVTTVTEIGKDVIGLRISPLQFR
B5: His-COPA-Δ324–774 (protein, UniProt P53621)
chain: MLTKFETKSARVKGLSFHPKRPWILTSLHNGVIQLWDYRMCTLIDKFDEHDGPVRGIDFHKQQPLFVSGGDDYKIKVWNYKLRRCLFTLLGHLDYIRTTFFHHEYPWILSASDDQTIRVWNWQSRTCVCVLTGHNHYVMCAQFHPTEDLVVSASLDQTVRVWDISGLRKKNLSPGAVESDVRGITGVDLFGTTDAVVKHVLEGHDRGVNWAAFHPTMPLIVSGADDRQVKIWRMNESKAWEVDTCRGHYNNVSCAVFHPRQELILSNSEDKSIRVWDMSKRTGVQTFRRDHDRFWVLAAHPNLNLFAAGHDGGMIVFKLERERKETFDPEKETIPDIDPNAKLLQPPAPIMPLDTNWPLLTVSKGFFEGTIASKGKGGALAADIDIDTVGTEGWGEDAELQLDEDGFVEATEGLGDDALGKGQEEGGGWDVEEDLELPPELDISPGAAGGAEDGFFVPPTKGTSPTQIWCNNSQLPVDHILAGSFETAMRLLHDQVGVIQFGPYKQLFLQTYARGRTTYQALPCLPSMYGYPNRNWKDAGLKNGVPAVGLKLNDLIQRLQLCYQLTTVGKFEEAVEKFRSILLSVPLLVVDNKQEIAEAQQLITICREYIVGLSVETERKKLPKETLEQQKRICEMAAYFTHSNLQPVHMILVLRTALNLFFKLKNFKTAATFARRLLELGPKPEVAQQTRKILSACEKNPTDAYQLNYDMHNPFDICAASYRPIYRGKPVEKCPLSGACYSPEFKGQICRVTTVTEIGKDVIGLRISPLQFR

Assays:
[1] = molecular target: GST-CT (GST fused to the 38 aa cytoplasmic tail of the IBV S protein) (infectious bronchitis virus (IBV), strain YN); assay: pull-down; GST or GST-CT immobilised on glutathione Sepharose 4B, washed with PBS, incubated overnight at 4°C with bacterial lysates containing His-COPA constructs; eluted with 20 mM reduced glutathione; Western blot; only the target purified
[2] = molecular target: Flag-tagged IBV spike protein, wild type (S-WT) (infectious bronchitis virus (IBV), strain YN); assay: co-IP; HEK 293T co-transfected with Flag-tagged S and one HA-tagged COPI subunit; 48 h; lysates precipitated with anti-Flag M2 affinity gel; Western blot

| Binder | binding [1] | binding [2] |
| --- | --- | --- |
| B1 | binds |  |
| B2 |  | binds |
| B3 |  | binds |
| B4 | no binding |  |
| B5 | no binding |  |
